Experimental findings from publication PMC8592984 are described below.

The chains behind the UniProt entries cited, without tags or fusion partners. Where a name states a change or a piece, a line headed by the entry shows the natural chain unless it says otherwise. A line that says so, or that is headed by a name, gives the form on record, which may keep a tag or linker. Residues count along the entry.
UniProt Q91VJ5: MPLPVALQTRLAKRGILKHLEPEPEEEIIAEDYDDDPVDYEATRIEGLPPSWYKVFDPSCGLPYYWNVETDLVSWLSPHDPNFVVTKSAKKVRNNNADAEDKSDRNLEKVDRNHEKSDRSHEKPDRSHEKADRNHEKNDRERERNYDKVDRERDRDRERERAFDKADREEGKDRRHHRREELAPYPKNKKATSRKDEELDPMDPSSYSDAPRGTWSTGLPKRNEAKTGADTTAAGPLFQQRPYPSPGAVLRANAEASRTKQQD
UniProt P05067, residues 672-711: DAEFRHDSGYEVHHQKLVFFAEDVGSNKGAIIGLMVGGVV
TAMRA-labeled Tau 410 (P10636-5, form named): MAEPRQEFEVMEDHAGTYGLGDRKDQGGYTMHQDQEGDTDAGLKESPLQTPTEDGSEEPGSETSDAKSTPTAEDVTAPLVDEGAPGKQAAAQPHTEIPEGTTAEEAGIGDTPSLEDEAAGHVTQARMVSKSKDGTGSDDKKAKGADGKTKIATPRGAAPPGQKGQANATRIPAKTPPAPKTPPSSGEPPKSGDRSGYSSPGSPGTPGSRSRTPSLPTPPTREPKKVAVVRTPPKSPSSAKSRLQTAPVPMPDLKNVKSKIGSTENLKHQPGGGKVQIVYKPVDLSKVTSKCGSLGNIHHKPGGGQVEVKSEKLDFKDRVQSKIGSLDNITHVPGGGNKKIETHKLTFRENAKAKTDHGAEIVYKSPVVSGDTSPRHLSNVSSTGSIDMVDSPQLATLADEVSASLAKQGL
UniProt O60828: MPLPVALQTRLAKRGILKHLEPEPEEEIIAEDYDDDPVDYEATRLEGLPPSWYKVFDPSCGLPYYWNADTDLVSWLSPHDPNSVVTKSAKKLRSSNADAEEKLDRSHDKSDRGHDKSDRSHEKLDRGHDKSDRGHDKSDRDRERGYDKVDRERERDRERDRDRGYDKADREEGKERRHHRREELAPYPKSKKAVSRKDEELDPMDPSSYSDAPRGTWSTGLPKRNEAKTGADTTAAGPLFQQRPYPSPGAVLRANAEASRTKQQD

For assay [1], the target named is endogenous mouse PQBP1 (mouse (endogenous in primary microglia and in R6/2 cerebral cortex)) (UniProt Q91VJ5). The assay is described as follows: co-IP; lysate (1% NP40) of primary C57BL/6 microglia cultured 3 days with 25 nM non-aggregated TAMRA-labeled Tau 410; precipitated with anti-PQBP1, anti-tau or human IgG and Protein G Sepharose; western blot and TAMRA fluorescence of the precipitate. A general note: In western blotting, separated proteins are transferred to a membrane and probed.

The next assay deals with Aβ40 (UniProt P05067). Kind of assay: SPR; Aβ40 and α-synuclein fused to an N-terminal His-tag and a biotinylation-tag; BIAcore J, 25 °C; 10 mM Tris-HCl pH 8.5, 150 mM NaCl, 3 mM EDTA, 0.005% Tween-20; who was immobilised is not told for these two; both purified. A general note: In SPR one partner is held on a chip, and binding of the other changes the refractive index at the surface.

These are yes or no findings as the source states them, for the method shown. For some assays here: Binding seen in cells or lysates may run through a third protein. Some binding calls cover weakened binding; strength is not graded here.

As for “TAMRA-labeled Tau 410 (from UniProt P10636-5 1-410)”, the binding entry in assay [1] is “binds”. Turning to “human PQBP1 full-length form (PQBP1-FL) (from UniProt O60828 1-265)”, the binding entry with Aβ40 was “binds”.
